For the assay, the target named is full-length human OX40L on the cell surface (human) (UniProt P23510). The assay is described as follows: receptor occupancy by flow cytometry on MDDCs of the allogenic MDDC:T MLR at day 4; free OX40L stained with anti-OX40L clone ik-1, % occupancy calculated from MFI.

By UniProt entry, the sequences of proteins in these tests, tags left out. Where a name states a change or a piece, a line headed by the entry shows the natural chain unless it says otherwise.
UniProt P23510: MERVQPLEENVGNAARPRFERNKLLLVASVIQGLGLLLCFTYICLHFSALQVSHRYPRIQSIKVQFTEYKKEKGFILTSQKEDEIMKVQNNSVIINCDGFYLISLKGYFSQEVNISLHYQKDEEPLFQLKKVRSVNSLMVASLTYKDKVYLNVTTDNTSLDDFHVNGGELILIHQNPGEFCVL

These are yes or no findings as the source states them, for the method shown. Some binding calls cover weakened binding; strength is not graded here.

B1: Ref1_Anti-OX40L (US Pat. No. 9,139,653) (antibody, V domains shown)
VH: EVQLVESGGGLVQPGGSLRLSCAASGFTFSNYAMNWVRQAPGKGLEWVSTISGSGGATRYADSVKGRFTISRDNSRNTVYLQMNSLRVEDTAVFYCTKDRLIMATVRGPYYYGMDVWGQGTTVTVSS
VL: DIQMTQSPSSLSASVGDRVTITCRASQSISSYLNWYQQKPGKAPNLLIYAASSLQSGVPSRFSGSGSETDFTLTISSLQPEDFATYYCQQSHSVSFTFGPGTKVDIK
As for B1, the binding result is “binds”.

(Values after US20240262922A1.)
